Measurements as given in the supplement of paper PMC10849652.
The list shows a part of the results. Residues, ends and D or L forms follow the SMILES beside them. *: point of attachment. Cbz = O=C(OCc1ccccc1)*

Amino acid sequences for entries named in this document (tags omitted). A change or cut given only in a name is not applied to a line headed by its entry.
UniProt Q92844: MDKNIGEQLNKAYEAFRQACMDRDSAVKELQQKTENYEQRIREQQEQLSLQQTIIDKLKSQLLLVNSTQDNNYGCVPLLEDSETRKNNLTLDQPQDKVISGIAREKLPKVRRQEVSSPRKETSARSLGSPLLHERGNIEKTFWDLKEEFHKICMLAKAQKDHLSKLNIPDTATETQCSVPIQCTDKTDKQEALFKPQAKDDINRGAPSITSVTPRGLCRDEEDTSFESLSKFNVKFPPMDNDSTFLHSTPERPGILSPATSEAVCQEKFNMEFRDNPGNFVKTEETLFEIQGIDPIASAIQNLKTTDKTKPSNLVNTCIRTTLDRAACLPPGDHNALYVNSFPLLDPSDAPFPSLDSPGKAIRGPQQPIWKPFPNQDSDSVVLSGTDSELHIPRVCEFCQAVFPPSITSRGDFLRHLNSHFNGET
UniProt Q1ZZU3: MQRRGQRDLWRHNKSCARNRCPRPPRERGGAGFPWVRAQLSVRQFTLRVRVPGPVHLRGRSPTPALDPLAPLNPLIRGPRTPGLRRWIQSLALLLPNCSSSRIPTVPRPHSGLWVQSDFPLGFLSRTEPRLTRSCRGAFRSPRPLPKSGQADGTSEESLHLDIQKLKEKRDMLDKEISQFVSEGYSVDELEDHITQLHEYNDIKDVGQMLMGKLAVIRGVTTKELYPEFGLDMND
UniProt O43815: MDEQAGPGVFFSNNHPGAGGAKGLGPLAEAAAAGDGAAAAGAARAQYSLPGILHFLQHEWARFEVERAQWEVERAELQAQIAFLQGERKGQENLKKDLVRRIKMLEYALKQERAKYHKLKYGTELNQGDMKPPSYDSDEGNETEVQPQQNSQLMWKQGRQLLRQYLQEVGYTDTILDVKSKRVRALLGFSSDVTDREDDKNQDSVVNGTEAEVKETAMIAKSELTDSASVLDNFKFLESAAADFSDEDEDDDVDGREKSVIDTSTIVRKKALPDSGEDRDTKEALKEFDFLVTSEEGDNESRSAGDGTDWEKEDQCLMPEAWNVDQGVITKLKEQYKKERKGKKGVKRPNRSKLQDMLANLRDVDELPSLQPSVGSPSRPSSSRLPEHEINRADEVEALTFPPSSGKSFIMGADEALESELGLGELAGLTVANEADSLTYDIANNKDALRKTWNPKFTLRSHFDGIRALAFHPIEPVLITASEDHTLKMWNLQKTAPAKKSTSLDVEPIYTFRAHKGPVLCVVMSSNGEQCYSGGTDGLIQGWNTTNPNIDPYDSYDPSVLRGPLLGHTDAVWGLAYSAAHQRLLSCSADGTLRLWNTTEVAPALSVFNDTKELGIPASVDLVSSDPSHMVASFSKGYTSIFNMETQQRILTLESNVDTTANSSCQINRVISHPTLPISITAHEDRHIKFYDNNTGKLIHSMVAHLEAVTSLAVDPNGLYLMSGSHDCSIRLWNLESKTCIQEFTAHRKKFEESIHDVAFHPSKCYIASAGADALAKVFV
UniProt Q96C24: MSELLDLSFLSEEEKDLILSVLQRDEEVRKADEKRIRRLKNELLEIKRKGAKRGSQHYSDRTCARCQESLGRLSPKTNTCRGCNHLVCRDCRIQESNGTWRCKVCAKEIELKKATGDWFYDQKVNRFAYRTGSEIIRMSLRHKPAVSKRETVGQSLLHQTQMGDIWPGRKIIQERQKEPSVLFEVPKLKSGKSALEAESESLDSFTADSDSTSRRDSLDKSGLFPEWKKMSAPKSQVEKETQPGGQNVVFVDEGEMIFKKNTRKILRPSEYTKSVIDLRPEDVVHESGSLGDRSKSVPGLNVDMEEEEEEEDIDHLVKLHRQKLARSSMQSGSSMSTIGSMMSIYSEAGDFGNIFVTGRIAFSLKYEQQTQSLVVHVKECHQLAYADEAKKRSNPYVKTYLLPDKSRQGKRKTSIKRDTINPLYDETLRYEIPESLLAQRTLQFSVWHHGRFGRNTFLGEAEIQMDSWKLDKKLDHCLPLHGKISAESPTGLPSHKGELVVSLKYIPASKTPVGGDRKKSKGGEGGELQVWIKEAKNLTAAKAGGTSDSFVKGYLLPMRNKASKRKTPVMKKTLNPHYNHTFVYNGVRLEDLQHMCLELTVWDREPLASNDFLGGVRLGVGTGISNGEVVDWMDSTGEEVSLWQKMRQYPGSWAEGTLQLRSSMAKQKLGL
UniProt Q9Y2H1: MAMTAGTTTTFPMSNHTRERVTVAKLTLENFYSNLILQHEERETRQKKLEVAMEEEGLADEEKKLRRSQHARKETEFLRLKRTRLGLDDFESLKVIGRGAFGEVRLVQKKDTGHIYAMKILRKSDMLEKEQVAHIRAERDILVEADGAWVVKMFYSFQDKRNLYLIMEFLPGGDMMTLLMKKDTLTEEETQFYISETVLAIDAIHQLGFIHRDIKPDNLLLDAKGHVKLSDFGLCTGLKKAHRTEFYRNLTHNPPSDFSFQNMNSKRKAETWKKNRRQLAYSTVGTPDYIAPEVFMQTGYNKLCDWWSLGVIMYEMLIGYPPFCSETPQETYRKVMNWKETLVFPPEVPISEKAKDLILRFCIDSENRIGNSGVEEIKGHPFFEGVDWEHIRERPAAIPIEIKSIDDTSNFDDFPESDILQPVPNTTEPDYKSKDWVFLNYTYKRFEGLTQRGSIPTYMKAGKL
UniProt Q13043: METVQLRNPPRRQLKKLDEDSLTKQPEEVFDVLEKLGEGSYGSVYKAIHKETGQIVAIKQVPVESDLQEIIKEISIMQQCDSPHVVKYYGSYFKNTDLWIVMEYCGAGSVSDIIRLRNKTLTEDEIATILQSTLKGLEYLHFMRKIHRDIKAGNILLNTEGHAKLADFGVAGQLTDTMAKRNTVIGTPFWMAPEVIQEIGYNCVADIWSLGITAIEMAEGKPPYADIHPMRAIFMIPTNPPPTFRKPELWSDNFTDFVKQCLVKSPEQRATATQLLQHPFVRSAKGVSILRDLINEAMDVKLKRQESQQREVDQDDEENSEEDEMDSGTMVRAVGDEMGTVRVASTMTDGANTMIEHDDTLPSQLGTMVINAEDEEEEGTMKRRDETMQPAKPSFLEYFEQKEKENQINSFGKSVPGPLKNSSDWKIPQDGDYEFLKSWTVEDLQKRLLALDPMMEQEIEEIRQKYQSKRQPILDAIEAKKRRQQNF
UniProt O95926: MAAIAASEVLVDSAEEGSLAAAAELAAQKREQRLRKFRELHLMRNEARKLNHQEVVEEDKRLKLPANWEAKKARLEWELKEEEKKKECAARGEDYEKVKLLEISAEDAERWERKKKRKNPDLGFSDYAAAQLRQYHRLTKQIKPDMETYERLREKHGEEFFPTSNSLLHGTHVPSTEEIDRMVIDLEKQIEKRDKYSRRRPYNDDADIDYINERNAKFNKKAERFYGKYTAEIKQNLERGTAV
UniProt Q4KMP7: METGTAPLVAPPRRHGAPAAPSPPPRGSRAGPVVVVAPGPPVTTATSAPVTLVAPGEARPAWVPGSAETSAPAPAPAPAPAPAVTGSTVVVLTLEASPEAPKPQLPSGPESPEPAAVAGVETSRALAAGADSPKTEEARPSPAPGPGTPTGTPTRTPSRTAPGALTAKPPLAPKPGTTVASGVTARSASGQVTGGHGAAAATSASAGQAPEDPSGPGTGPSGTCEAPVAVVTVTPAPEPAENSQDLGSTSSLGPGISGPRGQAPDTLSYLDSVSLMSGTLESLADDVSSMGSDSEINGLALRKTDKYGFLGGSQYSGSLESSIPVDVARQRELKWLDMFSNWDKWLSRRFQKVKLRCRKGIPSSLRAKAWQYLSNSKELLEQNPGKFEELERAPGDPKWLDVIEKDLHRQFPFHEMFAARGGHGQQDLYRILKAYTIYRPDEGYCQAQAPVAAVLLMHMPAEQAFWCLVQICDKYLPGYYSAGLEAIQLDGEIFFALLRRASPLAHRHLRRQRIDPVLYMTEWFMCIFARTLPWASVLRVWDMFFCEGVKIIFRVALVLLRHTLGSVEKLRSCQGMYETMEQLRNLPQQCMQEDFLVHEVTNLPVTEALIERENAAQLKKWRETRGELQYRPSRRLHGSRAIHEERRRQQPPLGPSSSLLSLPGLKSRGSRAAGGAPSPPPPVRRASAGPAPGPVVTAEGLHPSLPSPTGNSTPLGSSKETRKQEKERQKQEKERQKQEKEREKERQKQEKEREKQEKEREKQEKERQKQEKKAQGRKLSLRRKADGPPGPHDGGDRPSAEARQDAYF
UniProt Q15526: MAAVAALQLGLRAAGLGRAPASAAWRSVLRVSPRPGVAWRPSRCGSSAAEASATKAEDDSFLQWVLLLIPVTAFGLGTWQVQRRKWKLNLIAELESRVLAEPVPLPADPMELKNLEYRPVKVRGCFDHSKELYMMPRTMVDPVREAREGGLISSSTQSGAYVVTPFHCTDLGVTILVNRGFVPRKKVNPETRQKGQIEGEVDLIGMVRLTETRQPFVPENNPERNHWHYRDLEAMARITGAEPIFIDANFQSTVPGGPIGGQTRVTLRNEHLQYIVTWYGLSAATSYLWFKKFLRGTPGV
UniProt P51687: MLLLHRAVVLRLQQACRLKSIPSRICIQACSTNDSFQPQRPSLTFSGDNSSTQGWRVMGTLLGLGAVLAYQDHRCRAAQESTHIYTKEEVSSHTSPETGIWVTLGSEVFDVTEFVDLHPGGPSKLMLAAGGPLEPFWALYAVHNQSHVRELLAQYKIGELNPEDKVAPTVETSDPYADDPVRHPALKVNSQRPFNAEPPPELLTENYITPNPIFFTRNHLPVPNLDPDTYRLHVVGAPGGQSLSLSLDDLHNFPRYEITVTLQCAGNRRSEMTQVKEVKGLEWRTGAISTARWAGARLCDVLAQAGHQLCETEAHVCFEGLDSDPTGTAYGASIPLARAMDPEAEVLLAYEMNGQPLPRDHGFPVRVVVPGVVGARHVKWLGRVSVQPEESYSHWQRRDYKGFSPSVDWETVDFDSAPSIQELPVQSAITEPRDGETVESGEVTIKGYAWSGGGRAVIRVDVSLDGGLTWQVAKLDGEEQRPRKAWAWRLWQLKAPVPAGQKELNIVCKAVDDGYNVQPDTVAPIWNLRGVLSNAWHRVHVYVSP
UniProt Q8IWZ8: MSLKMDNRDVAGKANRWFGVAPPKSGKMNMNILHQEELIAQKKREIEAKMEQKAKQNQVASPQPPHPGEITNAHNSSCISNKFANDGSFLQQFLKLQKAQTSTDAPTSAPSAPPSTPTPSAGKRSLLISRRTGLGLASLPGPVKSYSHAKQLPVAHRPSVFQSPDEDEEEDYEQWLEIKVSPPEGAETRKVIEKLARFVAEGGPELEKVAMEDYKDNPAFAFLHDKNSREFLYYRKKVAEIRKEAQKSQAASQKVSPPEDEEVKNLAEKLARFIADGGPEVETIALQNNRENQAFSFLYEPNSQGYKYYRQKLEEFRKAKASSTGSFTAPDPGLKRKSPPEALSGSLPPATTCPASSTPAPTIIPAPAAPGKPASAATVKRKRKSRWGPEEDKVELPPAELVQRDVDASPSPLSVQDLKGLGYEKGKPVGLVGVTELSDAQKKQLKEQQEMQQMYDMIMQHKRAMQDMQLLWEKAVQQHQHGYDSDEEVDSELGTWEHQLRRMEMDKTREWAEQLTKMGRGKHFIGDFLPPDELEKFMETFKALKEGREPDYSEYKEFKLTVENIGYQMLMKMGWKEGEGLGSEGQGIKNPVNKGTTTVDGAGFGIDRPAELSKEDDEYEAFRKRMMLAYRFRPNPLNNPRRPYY
UniProt Q16594, whole entry, looked up: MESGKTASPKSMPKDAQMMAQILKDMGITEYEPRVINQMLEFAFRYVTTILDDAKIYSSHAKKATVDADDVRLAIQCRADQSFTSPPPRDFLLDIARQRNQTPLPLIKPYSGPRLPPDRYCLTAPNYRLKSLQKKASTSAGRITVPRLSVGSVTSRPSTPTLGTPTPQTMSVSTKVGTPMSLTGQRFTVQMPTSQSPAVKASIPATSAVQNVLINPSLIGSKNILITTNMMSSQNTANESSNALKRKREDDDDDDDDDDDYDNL

Key:
Experiment in all cases: log2 fold change, soluble protein after heating vs DMSO (PISA); higher = thermal stabilisation; K562 cells, 10 uM, 30 min; active = over 0.2 and 3.5 SD of the protein, either way, in both replicates (recomputed)
erlotinib = compound: C#Cc1cccc(Nc2ncnc3cc(OCCOC)c(OCCOC)cc23)c1 [erlotinib]
Summary of the method: (§1)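 Thermal stability values are relative to control samples and come from duplicates. They are expressed as log2 fold changes. For measurement, K562 cells (2×10^6 cells/mL) received 10 μM compound for 30 min, and aliquots were heated for 3 min over 48°C-58°C, pooled, and extracted at 4°C in PBS with 0.5% NP-40. Soluble protein, the supernatant after 21,000xg for 90 min, was quantified by TMTpro 16plex LC-MS/MS with equalised channel sums.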

[1] = compound: C/C(=N\NC(=O)C1=CC(=CC=C1)S(=O)(=O)N2CCOCC2)/C3=C(C=CC(=C3)Cl)O
Summary of the method: as §1

[2] = compound: C1=CC(=C(C=C1Cl)C2=NC3=NC=CN=C3C(=N2)NC4=CC=NC=C4)F
Summary of the method: as §1

[3] = compound: C1=CC(=CC=C1C2=NC3=C(N2)C=C(C=C3)C(=O)N)OC4=CC=C(C=C4)Cl
Summary of the method: as §1

[4] = compound: C1=CC2=C(C=CC(=C2)/C=C\3/C(=O)NC(=NCC4=CC=CS4)S3)N=C1
Summary of the method: as §1

[5] = compound: C1=CC2=NC=CN=C2C=C1/C=C/3\C(=O)NC(=O)S3
Summary of the method: as §1

[6] = compound: C1=CC=C(C=C1)C2=NC(=C(N2)C3=CC=NC=C3)C4=CC(=C(C=C4)Cl)O
Summary of the method: as §1

[7] = compound: C1=CC=C2C(=C1)C3=NNC4=CC=CC(=C43)C2=O
Summary of the method: as §1

[8] = compound: C1CCN(C1)C(=O)NC2=CC=CC(=C2)NC3=NC=C(C(=N3)NCCC4=CN=CN4)Br
Summary of the method: as §1

[9] = compound: C1CN(CCC1(CC2=CC=C(C=C2)Cl)N)C3=NC=NC4=C3C=CN4
Summary of the method: as §1

IRAK-1-4 Inhibitor I = compound: C1COCCN1CCN2C3=CC=CC=C3N=C2NC(=O)C4=CC(=CC=C4)[N+](=O)[O-] [IRAK-1-4 Inhibitor I]
Summary of the method: as §1

ibrutinib = compound: C=CC(=O)N1CCC[C@@H](n2nc(-c3ccc(Oc4ccccc4)cc3)c3c(N)ncnc32)C1 [ibrutinib]
Summary of the method: as §1

[10] = compound: CC(=O)c1cnc2ccc(-c3cc(Cl)c(O)c(Cl)c3)nc2c1N[C@H]1CC[C@H](CN(C)C)CC1
Summary of the method: as §1

ralimetinib = compound: CC(C)(C)Cn1c(N)nc2ccc(-c3[nH]c(C(C)(C)C)nc3-c3ccc(F)cc3)nc21 [ralimetinib]
Summary of the method: as §1

[11] = compound: CC(C)(O)CC(=O)NCCn1ccc2ncnc(Nc3ccc(Oc4cccc(C(F)(F)F)c4)c(Cl)c3)c21
Summary of the method: as §1

[12] = compound: CC(C)C1=C2N=C(C=C(N2N=C1)NCC3=CC=CC=C3)NCCCCCCN
Summary of the method: as §1

[13] = compound: CC(C)C[C@@H](C=O)NC(=O)[C@H](CC(C)C)NC(=O)[C@H](CC(C)C)NC(=O)OCc1ccccc1
Summary of the method: as §1

pinometostat = compound: CC(C)N(C[C@H]1O[C@@H](n2cnc3c(N)ncnc32)[C@H](O)[C@@H]1O)[C@H]1C[C@@H](CCc2nc3cc(C(C)(C)C)ccc3[nH]2)C1 [pinometostat]
Summary of the method: as §1

[14] = compound: CC1=C(C2=C(C=C1)C(=O)C3=CC=CC=C3N2CCCN)C
Summary of the method: as §1

[15] = compound: CC1=C(C(CC(=O)N1)C2=CC=C(C=C2)C(F)(F)F)C(=O)NC3=C(C=C4C(=C3)C=NN4)F
Summary of the method: as §1

| Target | log2 fold change (erlotinib) | log2 fold change [1] | log2 fold change [2] | log2 fold change [3] | log2 fold change [4] | log2 fold change [5] | log2 fold change [6] | log2 fold change [7] | log2 fold change [8] | log2 fold change [9] | log2 fold change (IRAK-1-4 Inhibitor I) | log2 fold change (ibrutinib) | log2 fold change [10] | log2 fold change (ralimetinib) | log2 fold change [11] | log2 fold change [12] | log2 fold change [13] | log2 fold change (pinometostat) | log2 fold change [14] | log2 fold change [15] |
| --- | --- | --- | --- | --- | --- | --- | --- | --- | --- | --- | --- | --- | --- | --- | --- | --- | --- | --- | --- | --- |
| TANK (UniProt Q92844) | inactive: -0.019 | inactive: -0.031 | inactive: 0.101 | inactive: -0.048 | inactive: 0.002 | inactive: 0.053 | inactive: -0.024 | inactive: -0.028 | inactive: 0.014 | inactive: 0.01 | inactive: -0.035 | inactive: 0.087 | inactive: -0.181 | inactive: 0.034 | inactive: -0.024 | inactive: 0.007 | inactive: 0.127 | inactive: -0.047 | inactive: -0.053 | – |
| SUPT5H (UniProt O00267) | inactive: 0.05 | inactive: 0.084 | inactive: 0.065 | inactive: 0.011 | inactive: 0.017 | inactive: 0.021 | inactive: 0.02 | inactive: 0.006 | inactive: -0.017 | inactive: 0.011 | inactive: -0.009 | inactive: -0.068 | inactive: 0.066 | inactive: -0.009 | inactive: -0.065 | inactive: -0.046 | inactive: 0.013 | inactive: -0.017 | inactive: -0.08 | – |
| STRIP2 (UniProt Q9ULQ0) | inactive: -0.053 | inactive: -0.003 | inactive: 0.009 | inactive: 0.027 | inactive: -0.008 | inactive: 0.1 | inactive: -0.07 | inactive: 0.014 | inactive: -0.001 | inactive: 0.006 | – | inactive: -0.131 | inactive: 0.072 | inactive: -0.028 | inactive: -0.074 | inactive: 0.04 | inactive: 0.027 | – | inactive: 0.041 | inactive: 0.018 |
| SWI5 (UniProt Q1ZZU3) | inactive: -0.025 | inactive: 0.056 | inactive: 0.034 | inactive: 0.027 | inactive: -0.103 | inactive: 0.023 | – | inactive: -0.15 | – | – | inactive: 0.053 | inactive: 0.213 | inactive: 0.134 | – | inactive: -0.049 | inactive: -0.029 | – | inactive: -0.097 | – | inactive: 0.022 |
| STRN (UniProt O43815) | inactive: -0.03 | inactive: 0 | inactive: 0.033 | inactive: 0.013 | inactive: -0.008 | inactive: 0.005 | active: 0.213 | inactive: 0.025 | inactive: -0.124 | inactive: 0.053 | inactive: 0.029 | inactive: 0.073 | inactive: -0.046 | inactive: 0.13 | inactive: -0.023 | inactive: 0.03 | inactive: -0.066 | inactive: -0.002 | inactive: 0 | – |
| STXBP5 (UniProt Q5T5C0) | inactive: 0.028 | inactive: 0.039 | inactive: 0.097 | inactive: 0.018 | inactive: 0.094 | inactive: 0.026 | inactive: 0.036 | inactive: -0.015 | inactive: -0.014 | inactive: 0.011 | inactive: -0.025 | inactive: -0.037 | inactive: -0.073 | inactive: 0.029 | inactive: -0.038 | inactive: -0.107 | inactive: -0.049 | inactive: 0.025 | inactive: 0.048 | – |
| SYTL4 (UniProt Q96C24) | inactive: -0.016 | inactive: -0.09 | inactive: 0 | inactive: 0.051 | inactive: 0.263 | inactive: 0.004 | – | inactive: 0.039 | inactive: -0.226 | inactive: -0.02 | – | inactive: 0.002 | inactive: 0.009 | – | inactive: 0.048 | inactive: -0.049 | – | – | inactive: 0.137 | inactive: -0.091 |
| STK38L (UniProt Q9Y2H1) | inactive: -0.005 | inactive: 0.018 | inactive: 0.05 | inactive: 0.031 | inactive: -0.015 | inactive: 0.046 | inactive: -0.368 | inactive: 0.102 | inactive: 0.008 | inactive: -0.041 | inactive: -0.084 | inactive: -0.048 | inactive: -0.181 | inactive: -0.577 | inactive: -0.035 | inactive: -0.148 | inactive: 0.385 | inactive: 0.051 | inactive: -0.023 | – |
| STK4 (UniProt Q13043) | inactive: -0.017 | inactive: 0 | inactive: -0.02 | inactive: 0.003 | inactive: 0.04 | inactive: -0.02 | inactive: -0.009 | active: -0.208 | inactive: -0.025 | inactive: 0.025 | inactive: -0.012 | inactive: -0.078 | active: -0.233 | inactive: 0.002 | inactive: -0.018 | inactive: -0.019 | inactive: 0.015 | inactive: 0.008 | inactive: 0.019 | – |
| SYF2 (UniProt O95926) | inactive: -0.042 | inactive: -0.054 | inactive: -0.052 | inactive: 0.05 | inactive: -0.054 | inactive: 0.069 | inactive: 0.023 | inactive: -0.097 | inactive: -0.024 | inactive: 0.122 | inactive: -0.063 | inactive: 0.056 | active: 0.411 | inactive: -0.019 | inactive: 0.049 | inactive: 0.327 | inactive: 0.199 | inactive: 0.072 | active: 0.382 | – |
| SYK (UniProt P43405) | inactive: 0.06 | inactive: 0.144 | inactive: -0.019 | inactive: 0.038 | inactive: 0.031 | inactive: -0.095 | inactive: 0.131 | – | inactive: -0.042 | inactive: 0.074 | inactive: -0.192 | inactive: 0.056 | inactive: -0.277 | inactive: 0.241 | inactive: -0.1 | inactive: 0.128 | inactive: 0.048 | inactive: 0.19 | inactive: -0.425 | – |
| TBC1D10B (UniProt Q4KMP7) | inactive: -0.013 | inactive: 0.063 | inactive: -0.018 | inactive: 0.039 | inactive: -0.008 | inactive: 0.036 | inactive: -0.033 | inactive: -0.109 | inactive: -0.024 | inactive: -0.033 | inactive: -0.001 | inactive: 0.025 | active: -0.342 | inactive: 0.009 | inactive: -0.006 | inactive: -0.027 | inactive: 0.021 | inactive: 0.063 | inactive: 0.057 | – |
| TAX1BP1 (UniProt Q86VP1) | inactive: -0.079 | inactive: -0.005 | inactive: 0.007 | inactive: 0.044 | inactive: 0.035 | inactive: 0.037 | inactive: -0.044 | inactive: -0.006 | inactive: -0.015 | inactive: -0.027 | inactive: -0.015 | inactive: -0.007 | inactive: -0.195 | inactive: 0.066 | inactive: -0.008 | inactive: -0.124 | inactive: 0.076 | inactive: 0.088 | inactive: -0.006 | – |
| SURF1 (UniProt Q15526) | inactive: 0.021 | inactive: -0.036 | inactive: 0.051 | inactive: -0.026 | inactive: -0.045 | inactive: 0.055 | inactive: 0.056 | inactive: 0.017 | inactive: -0.141 | inactive: 0 | inactive: 0.021 | inactive: -0.028 | inactive: 0.051 | inactive: -0.04 | inactive: 0.036 | inactive: -0.172 | inactive: 0.028 | inactive: -0.044 | inactive: 0.098 | – |
| SUOX (UniProt P51687) | inactive: 0.044 | inactive: 0.047 | inactive: 0.046 | inactive: -0.01 | inactive: 0.027 | inactive: 0.036 | inactive: -0.112 | inactive: -0.004 | inactive: 0.013 | inactive: 0.087 | inactive: 0.123 | inactive: -0.007 | inactive: 0.003 | inactive: 0.012 | inactive: -0.022 | inactive: 0.042 | inactive: 0.013 | inactive: 0.016 | inactive: 0.02 | – |
| SUGP1 (UniProt Q8IWZ8) | inactive: 0.039 | inactive: 0.093 | inactive: -0.027 | inactive: -0.029 | inactive: -0.01 | inactive: 0.005 | inactive: 0 | inactive: -0.012 | inactive: -0.03 | inactive: -0.001 | inactive: 0.008 | inactive: -0.024 | inactive: -0.08 | inactive: -0.023 | inactive: -0.003 | inactive: -0.127 | inactive: 0.061 | inactive: -0.017 | inactive: -0.003 | – |
| TAF9 (UniProt Q16594) | inactive: -0.007 | inactive: -0.003 | inactive: -0.036 | inactive: 0.014 | inactive: -0.027 | inactive: 0.019 | inactive: -0.04 | inactive: -0.032 | inactive: -0.024 | inactive: 0.02 | inactive: -0.029 | inactive: 0.027 | inactive: 0.049 | inactive: 0.025 | inactive: 0.069 | inactive: 0.024 | inactive: 0.112 | inactive: -0.072 | inactive: -0.005 | – |

Look-ups from above:
log2 fold change (ibrutinib) with SUPT5H (UniProt O00267) reads inactive: -0.068
log2 fold change (erlotinib) with SWI5 (UniProt Q1ZZU3) reads inactive: -0.025
